Test results: article PMC7351224
Results are given in words; binding and its absence hold for the method and conditions named. In cells and extracts the contact can be indirect. Some results given as binding are weak or reduced against the parent protein; the word gives no strength.

Sequences of proteins named here, by UniProt entry; tags and fusion partners are left off.
UniProt O60934: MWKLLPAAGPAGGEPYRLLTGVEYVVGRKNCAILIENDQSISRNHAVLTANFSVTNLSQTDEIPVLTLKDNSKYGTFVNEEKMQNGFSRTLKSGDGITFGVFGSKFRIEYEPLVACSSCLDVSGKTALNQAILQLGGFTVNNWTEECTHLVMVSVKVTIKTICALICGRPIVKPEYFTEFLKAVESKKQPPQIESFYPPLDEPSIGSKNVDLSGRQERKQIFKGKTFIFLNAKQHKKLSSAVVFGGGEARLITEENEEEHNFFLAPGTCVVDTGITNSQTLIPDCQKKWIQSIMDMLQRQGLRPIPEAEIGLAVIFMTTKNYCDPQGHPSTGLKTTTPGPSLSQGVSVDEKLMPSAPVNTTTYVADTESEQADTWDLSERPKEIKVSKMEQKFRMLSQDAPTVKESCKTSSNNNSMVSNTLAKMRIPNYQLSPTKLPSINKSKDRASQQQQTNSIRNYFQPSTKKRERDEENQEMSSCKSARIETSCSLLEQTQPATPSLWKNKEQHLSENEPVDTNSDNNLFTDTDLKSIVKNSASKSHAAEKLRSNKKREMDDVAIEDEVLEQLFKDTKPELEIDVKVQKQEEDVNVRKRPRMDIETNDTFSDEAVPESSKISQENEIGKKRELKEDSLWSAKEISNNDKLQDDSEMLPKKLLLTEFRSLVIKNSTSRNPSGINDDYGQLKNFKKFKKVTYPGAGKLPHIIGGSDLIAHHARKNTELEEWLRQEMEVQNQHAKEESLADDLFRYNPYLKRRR

Target: T1, TCOF1 (Treacle) (endogenous, U2OS) (human (endogenous in U2OS)) (UniProt Q13428)
T1 sequence: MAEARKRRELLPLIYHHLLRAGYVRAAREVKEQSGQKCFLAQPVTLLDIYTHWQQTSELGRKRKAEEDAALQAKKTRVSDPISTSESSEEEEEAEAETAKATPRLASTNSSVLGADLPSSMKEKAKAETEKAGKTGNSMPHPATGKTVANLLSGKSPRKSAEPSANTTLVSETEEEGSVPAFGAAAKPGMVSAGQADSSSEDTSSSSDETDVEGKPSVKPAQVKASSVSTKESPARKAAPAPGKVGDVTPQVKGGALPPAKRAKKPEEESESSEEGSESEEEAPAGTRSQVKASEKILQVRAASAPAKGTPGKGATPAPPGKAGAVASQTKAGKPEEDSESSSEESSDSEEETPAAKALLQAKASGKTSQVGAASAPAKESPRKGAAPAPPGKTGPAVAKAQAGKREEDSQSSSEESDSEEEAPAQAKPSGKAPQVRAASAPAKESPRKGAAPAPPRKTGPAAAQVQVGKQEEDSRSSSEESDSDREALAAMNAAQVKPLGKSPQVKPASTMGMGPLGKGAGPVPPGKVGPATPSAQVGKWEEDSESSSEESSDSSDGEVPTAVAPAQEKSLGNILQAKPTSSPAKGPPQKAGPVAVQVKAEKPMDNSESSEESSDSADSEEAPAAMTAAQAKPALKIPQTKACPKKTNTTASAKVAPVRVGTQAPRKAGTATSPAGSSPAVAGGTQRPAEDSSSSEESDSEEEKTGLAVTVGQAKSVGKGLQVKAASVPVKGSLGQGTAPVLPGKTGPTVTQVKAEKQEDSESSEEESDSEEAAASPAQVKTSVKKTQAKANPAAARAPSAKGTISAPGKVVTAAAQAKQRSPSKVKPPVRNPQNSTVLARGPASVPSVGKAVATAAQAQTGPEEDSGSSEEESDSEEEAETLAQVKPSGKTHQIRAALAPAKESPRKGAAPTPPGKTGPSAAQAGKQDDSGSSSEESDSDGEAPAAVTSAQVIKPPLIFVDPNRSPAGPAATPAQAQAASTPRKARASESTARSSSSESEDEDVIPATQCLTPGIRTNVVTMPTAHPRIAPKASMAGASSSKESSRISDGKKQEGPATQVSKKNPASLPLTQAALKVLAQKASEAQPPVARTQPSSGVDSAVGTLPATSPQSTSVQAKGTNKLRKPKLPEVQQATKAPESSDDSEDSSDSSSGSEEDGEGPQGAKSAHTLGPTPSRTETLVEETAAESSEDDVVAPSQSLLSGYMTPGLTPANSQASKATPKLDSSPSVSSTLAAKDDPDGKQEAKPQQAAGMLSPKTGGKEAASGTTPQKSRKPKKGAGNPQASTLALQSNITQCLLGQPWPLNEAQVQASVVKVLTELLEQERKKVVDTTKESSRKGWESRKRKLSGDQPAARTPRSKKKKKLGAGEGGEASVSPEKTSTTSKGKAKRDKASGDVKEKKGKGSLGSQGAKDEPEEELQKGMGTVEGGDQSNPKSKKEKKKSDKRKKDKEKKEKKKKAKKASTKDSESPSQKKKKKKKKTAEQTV
Assay: proximity ligation; Duolink PLA on formaldehyde-fixed U2OS-derived cells exposed to IR (5 Gy, 1 h post IR); antibodies against V5 tag and Treacle or NBS1 and Treacle; JMJD6 KO, KO+WT and KO+Mut cell lines for NBS1/Treacle

“NBS1 (endogenous, U2OS) (from UniProt O60934 1-754)” was tested, and the binding was “binds”.
